The other results are listed elsewhere or left out. Further columns of the screen follow, without active or inactive calls. The list favours compounds with an active or inconclusive main result. The note in brackets gives the kind of curve behind each potency; many fits are weak.
Experiment: qHTS Assay for Lipid Storage Modulators in Drosophila S3 Cells;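 on cell number change: cells counted by Cell Tracker Red CMTPX staining in the red channel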
Settings: BODIPY lipid droplet fluorescence, 18-24 h; for cell number change: measured here: cell count max response, cells fed with added oleic acid
Outline: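 Drosophila S3 cells loaded with oleic acid (400 uM, as added) and compounds at several concentrations; lipid droplets imaged by 488-nm laser-scanning cytometry, 500–530 nm intensity and object ratio to cell channel. Percent activity normalized to 20 uM Triacsin C.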

[1] = measured here: lipid fluorescence (Fed channel) AC50, cells fed with added oleic acid
[2] = measured here: cell number channel AC50, cells fed with added oleic acid

| Compound | cell number change | AC50 [1] | AC50 [2] |
| --- | --- | --- | --- |
| CCOc1ccc(N(CC(=O)NC2CCCCCC2)S(=O)(=O)c2c(C)noc2C)cc1 | 0.781% | 6.51 µM [falling, single point] |  |
| Nn1cnc2c([nH]c3ccccc32)c1=O | -8.43% | 8.2 µM [falling, single point] |  |
| O=C(c1ccccc1F)N1CCN(S(=O)(=O)c2ccc3c(c2)OCCO3)CC1 | 38.2% |  | 16.4 µM [rising, single point] |
| CCN1C(=S)SC(=O)C1=C1C=C(C)N(Cc2ccco2)C(C)=C1 | -15.9% | 14.6 µM [falling, partial curve, poor fit] |  |
| COc1ccc(Cc2nc3ccc(C(=O)NCC4COCCO4)cc3o2)cc1OC (configuration not stated) | 3.88% | 4.61 µM [falling, full curve] |  |
| CC1Cc2cc(S(=O)(=O)N3CCC(C(=O)N(C)Cc4ccccc4)CC3)ccc2N1C(=O)C1CC1 (configuration not stated) | -5.27% | 6.51 µM [falling, single point] |  |
| O=C(Nc1ccc2c(c1)OCO2)C(c1ccc(Cl)cc1)N1CCN(C(=O)c2ccco2)CC1 (configuration not stated) |  | 0.184 µM [rising, full curve, poor fit] |  |
| O=C1CN(C(=O)c2ccco2)c2ccccc2N1 | -78.5% | 23.1 µM [falling, partial curve] | 7.31 µM [falling, partial curve] |
| O=c1[nH]c2cc([N+](=O)[O-])c([N+](=O)[O-])cc2[nH]c1=O | -39.7% | 0.82 µM [rising, single point] | 29.1 µM [falling, single point] |
| Cc1ccc(F)cc1CNC(=O)C1CCC(=O)N(CCCN2CCCC2=O)C1 (configuration not stated) | -3.18% |  |  |
| Cc1ccccc1OCc1nc(-c2ccc(Br)o2)no1 | 87.8% | 5.17 µM [rising, partial curve] | 4.11 µM [rising, full curve] |
| O=C1C2C3C=CC(C3)C2C(=O)N1CN(Cc1ccccc1)CN1C(=O)C2C3C=CC(C3)C2C1=O (configuration not stated) | -2.57% | 18.4 µM [rising, partial curve, poor fit] |  |
| CC(=O)Nc1ccc(NC(=O)C2CCN(C(=O)NC3CCCCC3)CC2)cc1 | 36.8% |  | 20.6 µM [rising, single point] |
| COCCN1Cc2cccc(C(=O)Nc3c(C)cc(C)cc3C)c2C1=O | -13.8% | 20.6 µM [rising, partial curve, poor fit] |  |
| O=C(Nc1ccn(CC(=O)N2CCN(c3ccccn3)CC2)c(=O)n1)OCc1ccccc1 | -2.46% | 0.164 µM [falling, full curve, poor fit] | 0.164 µM [falling, single point] |
| CCCCCN(C(=O)CCC(=O)OCC(=O)c1ccc(C(C)(C)C)cc1)c1c(N)n(CCCC)c(=O)[nH]c1=O | -50% |  | 29.1 µM [falling, single point] |
| CCOc1cc(/C=C2/C(=O)ON=C2C)ccc1OCc1ccccc1 | -52.5% | 29.1 µM [falling, single point] | 23.1 µM [falling, single point] |
| CCOc1ccc(S(=O)(=O)NC(C)(C)C)cc1-c1nc2c(C(C)(C)C)nn(C)c2c(=O)[nH]1 | -34.7% | 29.1 µM [falling, single point] | 23.1 µM [falling, single point] |
| COc1ccc(Cl)cc1NC(=O)CCN1CCN(Cc2ccccc2)CC1 | -17% | 20.6 µM [falling, single point] |  |

| Compound | cell number change | AC50 [1] | AC50 [2] |
| --- | --- | --- | --- |
| Cc1cc(=O)[nH]c(SCC(=O)Nc2ncc(S(=O)(=O)c3ccc([N+](=O)[O-])cc3)s2)n1 | 34% | 29.1 µM [rising, single point] | 29.1 µM [rising, single point] |
| O=C(OCC(=O)N1CCCCCC1)c1ccc(F)cc1F | -25.7% |  |  |
| Cn1c(SCC(=O)N2CC(=O)Nc3ccccc32)nnc1C(F)(F)F | 3.21% |  |  |
| CCOC(=O)c1cc(S(=O)(=O)N2CCN(Cc3ccccc3)CC2)cn1C | 9.22% | 5.17 µM [rising, single point] |  |
| CC(C)=C1SC(N2CCCCC2)=NC1=O | -58% | 29.1 µM [falling, partial curve] | 32.6 µM [falling, single point] |
| COc1ccc(C(c2nnnn2Cc2ccccc2)N2CCN(C(=O)c3ccco3)CC2)cc1OC (configuration not stated) | -7.95% | 0.0058 µM [rising, full curve, poor fit] |  |
| O=C1CC(Sc2nnc(-c3ccccc3)o2)C(=O)N1c1ccccc1 (configuration not stated) | -220% | 29.1 µM [falling, single point] | 29.1 µM [falling, single point] |
| CC(C)CC(C(=O)NC1CCCC1)N(Cc1ccc2c(c1)OCO2)C(=O)c1snc(C(N)=O)c1N (configuration not stated) | -35.2% |  | 23.1 µM [falling, single point] |
| CC(C)(C)NC(=O)C1CCN(S(=O)(=O)c2cccc3nsnc23)CC1 | -18.3% |  |  |
| COc1ccccc1NS(=O)(=O)c1cccc(NC(=O)c2nc3nc(C)cc(C)n3n2)c1 | -5.79% | 16.4 µM [falling, single point] | 0.92 µM [rising, partial curve] |
| O=S1(=O)C[C@@H](O)[C@@H](Nc2ccc(Cl)cc2)C1 | -9.73% |  |  |
| N#Cc1ccc(-c2csc(NC(=O)c3cc(-c4cccs4)nc4ccccc34)n2)cc1 | 38.4% | 0.164 µM [rising, full curve, poor fit] | 0.366 µM [rising, full curve] |
| CCOC(=O)c1ccccc1NC(=O)Cn1cnc2c(cnn2C(C)(C)C)c1=O | -35.6% | 9.2 µM [falling, partial curve, poor fit] |  |
| Cc1ccc(C)c(NC(=O)N2CCCCCC2)c1 |  | 6.51 µM [rising, single point] |  |
| CN(NC(=O)c1ccccc1)c1ncc(C(F)(F)F)cc1Cl | -35.3% |  | 2.91 µM [falling, full curve] |
| O=S(=O)(c1ccc(-c2csc(Nc3ccc(F)cc3)n2)cc1)N1CCCC1 |  |  | 2.59 µM [rising, single point] |
| COc1cc(C2C(C#N)=C(N)OC3=C2C(=O)CCC3)cc2c1OCO2 (configuration not stated) | 29.2% | 3.66 µM [rising, partial curve, poor fit] |  |
| O=S(=O)(c1cccc2cccnc12)N1CCc2ccccc21 |  | 4.11 µM [rising, single point] | 1.84 µM [falling, partial curve] |
| O=C(c1ccccc1)C(O)c1ccccc1 (configuration not stated) | 27% | 5.8 µM [rising, partial curve, poor fit] |  |

Molecules from the list above that contain an aryl methoxy group:

| Compound | cell number change | AC50 [1] | AC50 [2] |
| --- | --- | --- | --- |
| COc1ccc(Cc2nc3ccc(C(=O)NCC4COCCO4)cc3o2)cc1OC (configuration not stated) | 3.88% | 4.61 µM [falling, full curve] |  |
| COc1ccc(Cl)cc1NC(=O)CCN1CCN(Cc2ccccc2)CC1 | -17% | 20.6 µM [falling, single point] |  |
| COc1ccc(C(c2nnnn2Cc2ccccc2)N2CCN(C(=O)c3ccco3)CC2)cc1OC (configuration not stated) | -7.95% | 0.0058 µM [rising, full curve, poor fit] |  |
| COc1ccccc1NS(=O)(=O)c1cccc(NC(=O)c2nc3nc(C)cc(C)n3n2)c1 | -5.79% | 16.4 µM [falling, single point] | 0.92 µM [rising, partial curve] |
| COc1cc(C2C(C#N)=C(N)OC3=C2C(=O)CCC3)cc2c1OCO2 (configuration not stated) | 29.2% | 3.66 µM [rising, partial curve, poor fit] |  |

Later entries.

| Compound | cell number change | AC50 [1] | AC50 [2] |
| --- | --- | --- | --- |
| O=C(O)CC(Cc1ccc(Br)cc1)C(=O)Nc1ccccc1 (configuration not stated) | 10.9% | 23.1 µM [rising, partial curve] |  |
| CN1CCN(Cc2nnc(-c3ccccc3)o2)CC1 |  | 29.1 µM [falling, single point] |  |
| COc1cc(C)c(S(=O)(=O)N2CCN=C2c2ccccc2)cc1C |  |  | 5.17 µM [falling, single point] |
| NC(=O)C1CCN(C(=O)c2ccc(C(F)(F)F)cc2)CC1 | 4.24% | 0.00411 µM [rising, full curve, poor fit] |  |
| CN(NC(=O)c1ccccc1Cl)c1ncc(C(F)(F)F)cc1Cl | 33% | 0.58 µM [falling, single point] | 0.82 µM [falling, single point] |
| COc1ccc(N2C(=NC(=O)C3CCCCC3)SC3CS(=O)(=O)CC32)cc1OC (configuration not stated) | 0.382% |  |  |
| Clc1ccc(OCc2nn3c(-c4ccco4)nnc3s2)cc1 |  | 14.6 µM [falling, partial curve, poor fit] |  |
| Cc1cc(CNC(=O)C(C)n2nc(C)c([N+](=O)[O-])c2C)c2ccccc2n1 (configuration not stated) | 18.8% |  |  |
| CCN(c1ccccc1)S(=O)(=O)c1ccc(Cl)c(NC(=O)COC(=O)c2cc(O)c3ccccc3c2O)c1 | -15.5% | 10.3 µM [falling, single point] |  |
| O=C(O)CCC(=O)NC1CCCCC1 | -46.7% |  | 29.1 µM [falling, single point] |
| Cc1cc(C)n2nc(C(=O)OCC(=O)N(C)CC(=O)Nc3ccccc3Cl)nc2n1 | -9.06% | 10.3 µM [falling, partial curve, poor fit] |  |
| COC(=O)C1=NN(c2ccc(OC)cc2)C2C(=O)N(c3ccccc3OC)C(=O)C12 (configuration not stated) | 10.9% | 13 µM [rising, single point] |  |
| COc1cc(CC(=O)OCC(=O)NC2CCCCC2)cc(OC)c1OC | -23.2% |  | 0.00517 µM [falling, full curve, poor fit] |
| Cc1c(=O)n(OCc2ccc(Cl)cc2)c2ccccc2[n+]1[O-] |  | 3.66 µM [falling, full curve, poor fit] |  |
| O=C(c1nc2nc(-c3ccccc3)cc(C(F)(F)F)n2n1)N1CCOCC1 | 45.7% |  | 2.31 µM [rising, partial curve] |
| COc1ccccc1NC(=O)/C(C#N)=C/C=C/c1ccco1 | -2.74% | 7.31 µM [rising, partial curve] | 0.651 µM [falling, single point] |
| Cc1ccc2cc(C(c3nnnn3C3CCCC3)N3CCN(c4ccccc4)CC3)c(=O)[nH]c2c1 (configuration not stated) | 23.8% | 2.06 µM [rising, partial curve] |  |
| Cc1cc(C)c(C(=O)Nc2ccc(S(=O)(=O)Nc3onc(C)c3C)cc2)c(C)c1 | -33.9% | 20.6 µM [falling, partial curve, poor fit] | 23.1 µM [falling, partial curve] |

Reference: PubChem BioAssay AID2685 (National Center for Advancing Translational Sciences (NCATS), 2010)
